PubChem BioAssay AID2685 (National Center for Advancing Translational Sciences (NCATS), 2010)
Some of the results follow. These are further read-outs of the screen, such as a control signal, another cell line or another target. No call is given for them. The list favours compounds with an active or inconclusive main result. The note in brackets gives the kind of curve behind each potency; many fits are weak.

Test: qHTS Assay for Lipid Storage Modulators in Drosophila S3 Cells;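 as to cell number change: cells counted by Cell Tracker Red CMTPX staining in the red channel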
Conditions: BODIPY lipid droplet fluorescence, 18-24 h; for cell number change: measured here: cell count max response, cells fed with added oleic acid
How it was run: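 Drosophila S3 cells got compounds at several concentrations plus oleic acid (400 uM solution). Laser-scanning cytometry with 488 nm excitation read lipid droplets at 500-530 nm and cells at 575-640 nm. Percent activity was relative to 20 uM Triacsin C.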

[1] = measured here: cell number channel AC50, cells fed with added oleic acid
[2] = measured here: lipid fluorescence (Fed channel) AC50, cells fed with added oleic acid

Compound | cell number change | AC50 [1] | AC50 [2]
COc1cc([N+](=O)[O-])cc2sc(NC(=O)C(C)(C)C)nc12 | -47.8% | 20.6 µM [falling, partial curve, poor fit] | 23.1 µM [falling, partial curve, poor fit]
Cc1cc([N+](=O)[O-])nn1CCC(=O)NC1CCCCCC1 | 7.99% | – | 0.00517 µM [falling, full curve, poor fit]
CC(NC(=O)c1ccccc1Br)c1nnc(SCC(=O)NC2CCCCC2)n1C (configuration not stated) | 3.48% | – | –
O=C(Nc1ccc(Br)cn1)c1cccc(-c2cc3ccccc3oc2=O)c1 | -50.8% | 16.4 µM [falling, single point] | 16.4 µM [falling, single point]
CCC(C)NC(=O)Nc1ccc(Br)cc1 (configuration not stated) | 8.47% | – | –
O=C(O)CCNS(=O)(=O)c1ccccc1Br | -33.5% | – | –
COc1ccccc1N1CCN(C(=O)CN(CCc2ccccc2)S(C)(=O)=O)CC1 | 38.2% | 8.2 µM [rising, partial curve] | 18.4 µM [rising, partial curve]
Cc1nn(C2CCS(=O)(=O)C2)c(Cl)c1/C=C/C(=O)OCC(=O)c1cc(C)n(-c2ccc(F)cc2)c1C (configuration not stated) | -5.02% | – | 0.0146 µM [rising, full curve, poor fit]
CN1C(=O)N(c2cccc3ccccc23)C(n2cncn2)C1(C)C (configuration not stated) | 35.8% | 0.00461 µM [rising, full curve, poor fit] | –
Cc1ccc(OCc2n[nH]c(=S)n2-c2ccccc2)cc1 | -12.8% | 0.731 µM [rising, single point] | –
O=C(CSc1n[nH]c(=O)n1-c1cccnc1)N1CCOCC1 | 19.3% | 5.8 µM [falling, single point] | 4.61 µM [falling, single point]
C=CCn1c(SCC(=O)Nc2cc(NC(C)=O)ccc2OC)nnc1-c1ccccn1 | -5.55% | – | –
CC(SC(=S)N1CCOCC1)C(=O)O (configuration not stated) | -15.7% | – | 0.164 µM [falling, full curve]
CCOCCn1c(=O)c2c(nc3n2CCCN3Cc2ccccc2)n(C)c1=O | -5.63% | – | –
COc1ccc(C)cc1NC(=S)NNC(=O)c1ccccc1Cl | – | 0.411 µM [rising, full curve, poor fit] | –
COc1ncnc2c1oc1nc(C(C)C)c3c(c12)CC(C)(C)OC3 | -2.51% | – | 0.651 µM [falling, single point]
CCC/C(=N\NC(=O)c1ccc(OC)c(OC)c1)c1ccccc1 | -2.57% | – | –
Cc1cccc(NC(=O)C2CCN(S(=O)(=O)c3ccc4c(c3)OCCO4)CC2)n1 | 144% | 0.13 µM [falling, full curve, poor fit] | –
CC(C)=CC1C=C(C)C(C)C2C(=O)NNC(=O)C12 (configuration not stated) | 78.9% | 18.4 µM [rising, partial curve] | 1.03 µM [rising, full curve]

As a short view, some entries already given:
Compound | cell number change | AC50 [1] | AC50 [2]
C=CCn1c(SCC(=O)Nc2cc(NC(C)=O)ccc2OC)nnc1-c1ccccn1 | -5.55% | – | –
CC(SC(=S)N1CCOCC1)C(=O)O (configuration not stated) | -15.7% | – | 0.164 µM [falling, full curve]
CCOCCn1c(=O)c2c(nc3n2CCCN3Cc2ccccc2)n(C)c1=O | -5.63% | – | –
COc1ccc(C)cc1NC(=S)NNC(=O)c1ccccc1Cl | – | 0.411 µM [rising, full curve, poor fit] | –
COc1ncnc2c1oc1nc(C(C)C)c3c(c12)CC(C)(C)OC3 | -2.51% | – | 0.651 µM [falling, single point]

Next entries follow.

Compound | cell number change | AC50 [1] | AC50 [2]
O=c1sc2ccccc2n1CCOc1ccccc1 | – | – | 8.2 µM [rising, partial curve, poor fit]
O=C(O)c1cccc(COc2ccc(CO)cc2Cl)c1 | -37.6% | 3.66 µM [falling, full curve] | 5.8 µM [falling, full curve]
O=C(CSc1nn(-c2ccc(F)cc2)c(=S)s1)NC1CCS(=O)(=O)C1 (configuration not stated) | 117% | 20.6 µM [rising, partial curve] | 1.84 µM [rising, partial curve]
Cc1cc(C(=O)NNC(=O)NC(C)C)no1 | – | – | 18.4 µM [falling, single point]
c1sc2[n+](c1C13CC4CC(CC(C4)C1)C3)CCS2 | -0.115% | – | 0.00461 µM [falling, full curve, poor fit]
COc1cc(NS(=O)(=O)c2ccc3c(c2)oc(=O)n3C)cc(OC)c1OC | -16.2% | – | 1.3 µM [falling, full curve]
COc1cc2ccccc2cc1C(=O)N(CCN(C)C)c1nc2ccc(C)cc2s1 | 5.97% | – | 20.6 µM [rising, single point]
CN(C)C(CNC(=O)c1ccc2c(=O)n(-c3ccccc3F)c(=S)[nH]c2c1)Cc1ccccc1 (configuration not stated) | -25.3% | 0.326 µM [falling, full curve, poor fit] | 0.13 µM [falling, partial curve, poor fit]
O=C(NC1CCCC1)c1nc2c(nnn2Cc2ccccc2Cl)c(=O)[nH]1 | -0.371% | – | 3.26 µM [rising, single point]
CCOc1ccc(NC(=O)CN2CCN(Cc3c(F)cccc3F)CC2)cc1 | 38.7% | 18.4 µM [rising, single point] | –
CCOC(=O)c1cnc2c(C)c(Cl)ccc2c1NCCCN1CCOCC1 | 3.28% | – | 29.1 µM [falling, single point]
O=C(Nc1ccn(Cc2ccccc2F)n1)c1ccc(COc2ccccc2Cl)cc1 | -15% | – | 6.51 µM [rising, single point]
CC1CCCC(C)N1C(=O)Cn1c(SCC(=O)NCc2ccc3c(c2)OCO3)nc2ccccc21 (configuration not stated) | 18.4% | 0.461 µM [rising, partial curve] | 0.58 µM [rising, partial curve]
CCOP(=O)(OCC)C(Nc1cccc(C(F)(F)F)c1)c1ccc(F)cc1 (configuration not stated) | 18.1% | – | 20.6 µM [rising, partial curve]
COc1ccc(-n2c(Cn3nnc4ccccc43)nnc2SCC(=O)O)cc1 | 2.44% | – | 0.116 µM [falling, full curve, poor fit]
CCc1ccc(C2C(C#N)=C(N)SC(N)=C2C#N)s1 | -23% | – | 10.3 µM [falling, single point]
NC(=O)c1ncc(C(F)(F)F)cc1Oc1cccc(F)c1 | -40% | 25.9 µM [falling, single point] | 0.0058 µM [falling, full curve]
O=C(CCC(=O)Nc1ccc(F)cc1)N/N=C/c1cccc(Br)c1 | – | 0.411 µM [rising, full curve] | 29.1 µM [falling, single point]
O=C(O)c1ccc(CSc2nc(-c3ccc(Cl)cc3)cc(C(F)(F)F)n2)cc1 | -20.2% | – | 29.1 µM [falling, single point]

Compound | cell number change | AC50 [1] | AC50 [2]
CC(=O)N/C(=C\c1ccccc1)C(=O)OC(C)C(=O)Nc1ccccc1F (configuration not stated) | 2.98% | – | 7.31 µM [rising, partial curve, poor fit]
N#C/C(=C\c1cccnc1)C(=O)Nc1ccc(S(N)(=O)=O)cc1 | – | – | 29.1 µM [falling, single point]
Cn1c(COc2ccc3ccccc3c2)nnc1SCC(N)=O | 14.5% | – | –
Nc1ccc(C(=O)O)cc1[N+](=O)[O-] | – | 3.66 µM [falling, single point] | 0.00517 µM [falling, full curve, poor fit]
CCCCOC(=O)C1=C(C)Nc2ncnn2C1c1cc(OC)c(OC)cc1OC (configuration not stated) | -34.5% | 0.146 µM [falling, full curve, poor fit] | 0.116 µM [falling, full curve, poor fit]
COc1ccc(NC(=O)CSc2nnc3ccc(-c4ccncc4)nn23)cc1 | 50.1% | 3.66 µM [rising, partial curve] | 10.3 µM [rising, partial curve]
Cc1cc(C)c2nc(N(CCN(C)C)C(=O)/C=C/c3cccs3)sc2c1 | 5.31% | – | 29.1 µM [falling, single point]
COc1cc(-c2noc(C3CCCN(S(=O)(=O)c4cccc(Cl)c4)C3)n2)cc(OC)c1OC (configuration not stated) | -31.1% | 16.4 µM [falling, single point] | –
O=C(NCCc1c[nH]c2ccccc12)C1CCN(Cc2ccc(Br)cc2)CC1 | 14% | – | 29.1 µM [rising, single point]
c1ccc(-c2cnc(-c3cccnc3)o2)cc1 | -30.9% | 18.4 µM [falling, partial curve] | –
COCCNC(=O)/C(C#N)=C/c1ccc(-c2ccc(S(=O)(=O)N3CCOCC3)cc2)o1 | 13.4% | – | 6.51 µM [rising, partial curve, poor fit]
COc1ccc(/C=C2\SC(=S)N(CC(=O)Nc3nnc(C)s3)C2=O)cc1 | 12.8% | – | 0.651 µM [rising, full curve, poor fit]
O=C(Cc1ccccc1)NNS(=O)(=O)c1ccc(F)cc1 | 1.01% | – | 11.6 µM [rising, partial curve, poor fit]
CCCOc1ccc(C(=O)NC(=S)NCc2cccnc2)cc1 | 11.1% | 2.31 µM [rising, single point] | 20.6 µM [falling, single point]
Cc1n[nH]c(=O)c2c(NC(=O)CSc3ncccn3)oc(C)c12 | 43.8% | 0.366 µM [rising, full curve] | 0.58 µM [rising, single point]
COc1ccc(-c2noc(CN(C(=O)c3c(-c4ccccc4Cl)noc3C)C(C)C)n2)cc1 | -18.8% | – | –
COc1ccccc1OCc1nc2ccccc2n1C | -19.9% | 6.51 µM [falling, single point] | –
O=C(CNc1ccccc1Cl)Nc1cc(S(=O)(=O)N2CCOCC2)ccc1Cl | 34.9% | 18.4 µM [rising, single point] | 18.4 µM [rising, single point]
Cc1csc(CNc2ncnc3ccc(-c4ccc5c(c4)OCO5)cc23)c1 | -12.2% | – | 13 µM [falling, single point]
